Test results: US9120851B2, “Human antibodies to human angiopoietin-like protein 4” (Regeneron Pharmaceuticals, Inc., priority 2009, dated 2015)
Some entries share one result that the patent states for a list of compounds.

System: full-length and N-terminal hANGPTL4 proteins
Assay: LPL inhibition assay, IC50 ranges stated in text over several ANGPTL4 proteins
Assay type: biochemical, human
Settings: range over both hANGPTL4 proteins of Table 14; read-out: IC50s, range for the full-length and the N-terminal hANGPTL4 proteins

Row | Molecule | IC50 [nM]
1 | H1H284P: anti-hANGPTL4 antibody, hIgG1 isotype, HCVR/LCVR SEQ ID NOs 90/92 (antibody, V domains shown) VH: QVQLVESGGGVVQPGRSLRLSCAASGFTFSSYGMHWVRQAPGKGLEWMAVISFDGGNKNNADSVKGRFTISRDNSKNTLYLQMNSLRAEDTAVYYCAKEGDRSGHPYFYYYGLDVWGQGTTVTVS VL: DIQLTQSPSFLSASVGDRVTITCWASQGISSYLAWYQQKPGKAPKLLIYAASTLQSGVPSRFSGSGSETEFTLTISSLQPEDFATYYCQQLHSYPLTFGGGTKVEIK | 0.2 to 0.7
2 | H4H268P2: IgG4 version of H1H268P with a single amino acid substitution in framework region 1, HCVR/LCVR SEQ ID NOs 487/44 (antibody, V domains shown, IgG4 constant region) VH: QVQLQQSGAGLLKPSETLSLTCTVYGGSFSIHHWTWIRHPPGKGLEWIGEINHRGSTNYNPSLKSRVTISIDTSKNQFSLKLSAVTAADTAVYYCARGLRFLDWLSSYFDYWGQGTLVTVSS VL: DIQMTQSPSSLSASVGDRVTITCRASQGISDYLAWYQQKPGKVPNLLIYAASALQSGVPSRFSGSGSGTDFTLTISSLQPEDVATYYCQNYNTAPLTFGGGTKVEIK | 1 to 2
